Measured values reported in PubChem BioAssay AID1487 (National Center for Advancing Translational Sciences (NCATS), 2009).
The other results are listed elsewhere or left out. The main result of the screen is listed elsewhere. These columns were measured beside it and carry no call. Compounds called inactive in the main read-out are mostly missing here. Potencies come from curve fits of mixed quality, noted in brackets.

Assay: qHTS Assay for Modulators of Lamin A Splicing
Conditions: HeLa LMNA splicing GFP/RFP minigene ratio, 48 h
Summary of the method: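 Read-out is the ratio of GFP to DsRed2 object intensity, acquired by 488 nm laser-scanning cytometry on HeLa lamin A-EGFP minigene reporter cells. Compound incubation 48 hrs at 37 °C in Opti-MEM with 2% FBS; DMSO 0.5% final.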

[1] = measured here: RFP viability control channel
[2] = measured here: GFP splicing reporter channel

For `COCCNC(=O)/C(C#N)=C/c1ccc(C)o1`, the AC50 [1] was 0.0282 µM [falling, full curve, poor fit].

For `CCS(=O)(=O)Nc1cccc(C2=NN(S(=O)(=O)c3ccc(C)cc3)C(c3ccco3)C2)c1` (stereo unspecified), the AC50 [1] was 1.26 µM [rising, single point].

With `N#C/C(=C\c1ccc(Cl)s1)C(=O)N1CCN(c2ccccc2)CC1` the AC50 [2] was 12.6 µM [rising, single point] and the AC50 [1] was 14.1 µM [rising, single point].

In the case of `CCOc1ccc(/C=N/NC(=O)c2c(-c3ccccc3)noc2C)cc1`, the AC50 [1] is reported as 2 µM [rising, partial curve].

For `CCCCOc1ccc(-c2nnc(N)s2)cc1`, the AC50 [1] was 4.47 µM [falling, partial curve, poor fit].

In the case of `Cc1cc(=S)[nH]c(=S)[nH]1`, the AC50 [2] is reported as 0.01 µM [rising, full curve, poor fit] and the AC50 [1] is reported as 0.00447 µM [rising, full curve, poor fit].

For `CCOc1ccccc1OCC(=O)Nc1ccc(N2CCCCC2)cc1`, the AC50 [1] was 14.1 µM [rising, single point].

With `Cc1csc(SC(C)C(=O)Nc2ccc3c(c2)OCCO3)n1` (stereo unspecified) the AC50 [2] was 0.0891 µM [falling, full curve, poor fit].

With `CCOC(=O)c1oc2cccc(O)c2c1CN(Cc1ccccc1)C(C)=O` the AC50 [1] was 15.8 µM [rising, single point].

For `CCc1ccc(Nc2nnc(SCC(=O)Nc3sccc3C(N)=O)s2)cc1`, the AC50 [2] was 25.1 µM [rising, partial curve] and the AC50 [1] was 35.5 µM [rising, partial curve].

With `COc1ccc(CNC(=O)CN(c2ccc(OC)cc2)S(=O)(=O)c2c(C)nn(C)c2C)cc1` the AC50 [2] was 2.51 µM [rising, partial curve].

In the case of `N#CC1=C(N)OC2=C(C(=O)CC(c3ccccc3)C2)C1c1ccc2c(c1)OCO2` (stereo unspecified), the AC50 [2] is reported as 31.6 µM [rising, single point] and the AC50 [1] is reported as 31.6 µM [rising, single point].

In the case of `Cc1ccc(NC(=O)COC(=O)CCC(=O)c2cccs2)c(C)c1`, the AC50 [1] is reported as 35.5 µM [falling, single point].

In the case of `c1ccc(-n2c(SCc3ccncc3)nnc2-c2ccco2)cc1`, the AC50 [1] is reported as 0.794 µM [falling, full curve, poor fit].

In the case of `Cc1ccc(S(=O)(=O)CCC(=O)N2CCN(c3ccc(Cl)cc3)CC2)cc1`, the AC50 [2] is reported as 35.5 µM [rising, single point] and the AC50 [1] is reported as 35.5 µM [rising, single point].

For `Cc1c(NC(=O)c2ccc3c(c2)OCO3)cccc1-c1nc2ccccc2s1`, the AC50 [2] was 3.16 µM [rising, single point] and the AC50 [1] was 5.62 µM [rising, single point].

With `COc1ccc(CCNC(=O)c2ccc(-n3c(C)cc4c3CCCC4)cc2)cc1OC` the AC50 [1] was 0.891 µM [rising, full curve, poor fit].

With `COc1ccc(-c2noc(CCC(=O)NCc3cc(Br)ccc3OC)n2)cc1` the AC50 [2] was 20 µM [rising, partial curve, poor fit] and the AC50 [1] was 28.2 µM [rising, single point].

In the case of `CNS(=O)(=O)c1ccc(N2CCCC2)c([N+](=O)[O-])c1`, the AC50 [1] is reported as 0.0316 µM [falling, full curve, poor fit].

In the case of `O=C1CCCC(=O)C1=Cc1c[nH]c2ccccc12`, the AC50 [1] is reported as 0.355 µM [falling, full curve, poor fit].

With `Cc1[nH]n(-c2ccccc2)c(=O)c1/C=N/N1C(=O)c2cccc3cccc(c23)C1=O` the AC50 [2] was 0.0398 µM [rising, full curve, poor fit] and the AC50 [1] was 0.708 µM [rising, single point].

For `C=CCN(c1ccccc1Cl)S(=O)(=O)c1cccc(C(=O)NCCc2ccc(OC)cc2)c1`, the AC50 [1] was 15.8 µM [rising, single point].

For `COc1ccc(/C=C2\SC(=O)N(CCC(=O)Nc3ccccc3)C2=O)cc1OC`, the AC50 [2] was 0.0794 µM [rising, single point].

With `Cc1cccc(NC(=S)NC2CCCCCC2)c1C` the AC50 [1] was 35.5 µM [rising, single point].

With `COc1ccccc1/C=C(/C(=O)OCC(=O)NCc1ccccc1)c1ccccc1` the AC50 [2] was 25.1 µM [rising, partial curve, poor fit] and the AC50 [1] was 22.4 µM [rising, partial curve].

In the case of `CCn1c(CN2CCCCC2)nc2cc(NC(=O)c3ccccc3[N+](=O)[O-])ccc21`, the AC50 [2] is reported as 14.1 µM [falling, partial curve, poor fit] and the AC50 [1] is reported as 0.0178 µM [falling, full curve, poor fit].

For `CSc1ncc(C(=O)NCc2ccc(Cl)cc2)c(C(F)(F)F)n1`, the AC50 [2] was 11.2 µM [rising, partial curve].

With `CCOC(=O)C1C(=O)C=C(c2ccc(C)cc2)CC1c1ccccc1` (stereo unspecified) the AC50 [2] was 3.55 µM [falling, partial curve].

In the case of `COc1ccc(-n2ccnc2)cc1`, the AC50 [2] is reported as 12.6 µM [rising, partial curve, poor fit].

With `C=CCn1c(=NC(=O)c2ccc(S(=O)(=O)N3CCCc4ccccc43)cc2)sc2cc(S(N)(=O)=O)ccc21` the AC50 [1] was 2.82 µM [falling, full curve, poor fit].

In the case of `S=C(Nc1ccccc1)Nc1nccs1`, the AC50 [2] is reported as 4.47 µM [falling, full curve] and the AC50 [1] is reported as 3.55 µM [falling, full curve].

In the case of `CCOc1ccc(C(=O)Nc2ccc(C(=O)OCc3cc(=O)n4ccsc4n3)cc2)cc1`, the AC50 [1] is reported as 0.0891 µM [falling, full curve, poor fit].

In the case of `CCOC(=O)c1sc(C)c2c1NC(c1ccc(N(C)C)cc1)NC2=O` (stereo unspecified), the AC50 [2] is reported as 6.31 µM [rising, partial curve] and the AC50 [1] is reported as 14.1 µM [rising, partial curve].

For `COc1ccc(S(=O)(=O)NCC2CCC(C(=O)NCc3ccco3)CC2)cc1` (stereo unspecified), the AC50 [2] was 35.5 µM [falling, single point].

With `CCc1c(C)c(C#N)c2nc3ccccc3n2c1Cl` the AC50 [1] was 15.8 µM [rising, single point].

For `Cc1ccc(-c2nn3c(C)nnc3c3ccccc23)cc1S(=O)(=O)N(C)CCO`, the AC50 [1] was 12.6 µM [rising, partial curve].

For `COc1ccccc1CNc1nc(-c2cccnc2)nc2ccccc12`, the AC50 [2] was 22.4 µM [falling, single point] and the AC50 [1] was 31.6 µM [falling, single point].

For `CCc1ccc(C(=O)COC(=O)c2cc([N+](=O)[O-])ccc2NCCO)cc1`, the AC50 [2] was 15.8 µM [rising, single point] and the AC50 [1] was 31.6 µM [rising, single point].

For `CN1CSC2=C(C#N)C(c3cccc(OCc4ccccc4)c3)CC(=O)N2C1` (stereo unspecified), the AC50 [1] was 31.6 µM [rising, single point].

In the case of `CN1C(=O)c2c(sc3c2CC(C)(C)SC3)N2CCN=C12`, the AC50 [1] is reported as 14.1 µM [rising, single point].

In the case of `COc1cccc(N2CCN(C(=O)c3cc4c(=O)n(Cc5cccs5)ccc4nc3C)CC2)c1`, the AC50 [2] is reported as 0.02 µM [falling, full curve, poor fit].

For `CC(C)NC(=S)N/N=C1\CCCCC1C1CCCCC1` (stereo unspecified), the AC50 [2] was 11.2 µM [rising, single point] and the AC50 [1] was 15.8 µM [rising, single point].

For `CCN(CC)CCn1c2c(c(SCC(=O)Nc3cccc(C(F)(F)F)c3)nc1=O)CCC2`, the AC50 [2] was 0.794 µM [falling, full curve, poor fit].

In the case of `Cc1cccc(CNC(=O)Cc2ccc(NC(=O)N3CCCCc4ccccc43)cc2)c1`, the AC50 [1] is reported as 0.112 µM [falling, full curve, poor fit].

With `CCOC(=O)c1[nH]c(C)c(CCC(=O)NC(C)c2ccccc2)c1C` (stereo unspecified) the AC50 [2] was 0.794 µM [rising, full curve, poor fit].

With `Cc1ccc(Cl)c(NC(=O)CCl)c1Cl` the AC50 [2] was 12.6 µM [rising, partial curve] and the AC50 [1] was 35.5 µM [rising, single point].

With `CCCCNC(=O)C(Sc1ccccc1)c1ccccc1` (stereo unspecified) the AC50 [2] was 11.2 µM [rising, partial curve] and the AC50 [1] was 11.2 µM [rising, partial curve].

In the case of `CCOC(=O)c1c(C)[nH]c(C(=O)CN2C(=O)C(=O)N(CC(C)C)C2=O)c1C`, the AC50 [1] is reported as 28.2 µM [rising, partial curve].

For `CC(=O)C1=C(C)NC(SCc2ccc(C#N)cc2)=C(C#N)C1c1ccco1` (stereo unspecified), the AC50 [2] was 20 µM [rising, partial curve, poor fit] and the AC50 [1] was 1.58 µM [rising, partial curve, poor fit].

For `Cc1ccc(N(C)C(=O)Cn2cc(S(=O)(=O)N3CCCC3)c(S(=O)(=O)N3CCCC3)c2)cc1`, the AC50 [1] was 0.0178 µM [falling, full curve, poor fit].

For `Cc1ccc(C(=O)CSc2cnc3ccccc3n2)cc1C`, the AC50 [2] was 12.6 µM [rising, partial curve] and the AC50 [1] was 22.4 µM [rising, partial curve].

For `Cc1ccc(-c2nnc(CSc3nnc(COc4ccccc4)n3-c3ccccc3)o2)cc1`, the AC50 [2] was 11.2 µM [rising, partial curve] and the AC50 [1] was 20 µM [rising, single point].

For `COc1ccc(CCN2C(=O)NC(NC(=O)CCc3ccccc3)(C(F)(F)F)C2=O)cc1OC` (stereo unspecified), the AC50 [1] was 1.58 µM [rising, full curve].

With `Cc1ccc(S(=O)(=O)N(CC(=O)N2CCN(c3ccccc3F)CC2)C2CCCCC2)cc1` the AC50 [2] was 20 µM [rising, single point] and the AC50 [1] was 31.6 µM [rising, single point].

For `Cc1onc(-c2c(F)cccc2Cl)c1C(=O)OCC(=O)c1c(N)n(C)c(=O)n(C)c1=O`, the AC50 [1] was 35.5 µM [rising, single point].
